In the supplement of paper PMC11006884:
Most of the targets with a hit are listed elsewhere, so they are rarer here than in the full data. This is a noisy data set. This is a selection; strong and weak results do not stand in their true shares.

Sequences of proteins named here, by UniProt entry; tags and fusion partners are left off. A change or cut given only in a name is not applied to a line headed by its entry.
UniProt Q9Y490: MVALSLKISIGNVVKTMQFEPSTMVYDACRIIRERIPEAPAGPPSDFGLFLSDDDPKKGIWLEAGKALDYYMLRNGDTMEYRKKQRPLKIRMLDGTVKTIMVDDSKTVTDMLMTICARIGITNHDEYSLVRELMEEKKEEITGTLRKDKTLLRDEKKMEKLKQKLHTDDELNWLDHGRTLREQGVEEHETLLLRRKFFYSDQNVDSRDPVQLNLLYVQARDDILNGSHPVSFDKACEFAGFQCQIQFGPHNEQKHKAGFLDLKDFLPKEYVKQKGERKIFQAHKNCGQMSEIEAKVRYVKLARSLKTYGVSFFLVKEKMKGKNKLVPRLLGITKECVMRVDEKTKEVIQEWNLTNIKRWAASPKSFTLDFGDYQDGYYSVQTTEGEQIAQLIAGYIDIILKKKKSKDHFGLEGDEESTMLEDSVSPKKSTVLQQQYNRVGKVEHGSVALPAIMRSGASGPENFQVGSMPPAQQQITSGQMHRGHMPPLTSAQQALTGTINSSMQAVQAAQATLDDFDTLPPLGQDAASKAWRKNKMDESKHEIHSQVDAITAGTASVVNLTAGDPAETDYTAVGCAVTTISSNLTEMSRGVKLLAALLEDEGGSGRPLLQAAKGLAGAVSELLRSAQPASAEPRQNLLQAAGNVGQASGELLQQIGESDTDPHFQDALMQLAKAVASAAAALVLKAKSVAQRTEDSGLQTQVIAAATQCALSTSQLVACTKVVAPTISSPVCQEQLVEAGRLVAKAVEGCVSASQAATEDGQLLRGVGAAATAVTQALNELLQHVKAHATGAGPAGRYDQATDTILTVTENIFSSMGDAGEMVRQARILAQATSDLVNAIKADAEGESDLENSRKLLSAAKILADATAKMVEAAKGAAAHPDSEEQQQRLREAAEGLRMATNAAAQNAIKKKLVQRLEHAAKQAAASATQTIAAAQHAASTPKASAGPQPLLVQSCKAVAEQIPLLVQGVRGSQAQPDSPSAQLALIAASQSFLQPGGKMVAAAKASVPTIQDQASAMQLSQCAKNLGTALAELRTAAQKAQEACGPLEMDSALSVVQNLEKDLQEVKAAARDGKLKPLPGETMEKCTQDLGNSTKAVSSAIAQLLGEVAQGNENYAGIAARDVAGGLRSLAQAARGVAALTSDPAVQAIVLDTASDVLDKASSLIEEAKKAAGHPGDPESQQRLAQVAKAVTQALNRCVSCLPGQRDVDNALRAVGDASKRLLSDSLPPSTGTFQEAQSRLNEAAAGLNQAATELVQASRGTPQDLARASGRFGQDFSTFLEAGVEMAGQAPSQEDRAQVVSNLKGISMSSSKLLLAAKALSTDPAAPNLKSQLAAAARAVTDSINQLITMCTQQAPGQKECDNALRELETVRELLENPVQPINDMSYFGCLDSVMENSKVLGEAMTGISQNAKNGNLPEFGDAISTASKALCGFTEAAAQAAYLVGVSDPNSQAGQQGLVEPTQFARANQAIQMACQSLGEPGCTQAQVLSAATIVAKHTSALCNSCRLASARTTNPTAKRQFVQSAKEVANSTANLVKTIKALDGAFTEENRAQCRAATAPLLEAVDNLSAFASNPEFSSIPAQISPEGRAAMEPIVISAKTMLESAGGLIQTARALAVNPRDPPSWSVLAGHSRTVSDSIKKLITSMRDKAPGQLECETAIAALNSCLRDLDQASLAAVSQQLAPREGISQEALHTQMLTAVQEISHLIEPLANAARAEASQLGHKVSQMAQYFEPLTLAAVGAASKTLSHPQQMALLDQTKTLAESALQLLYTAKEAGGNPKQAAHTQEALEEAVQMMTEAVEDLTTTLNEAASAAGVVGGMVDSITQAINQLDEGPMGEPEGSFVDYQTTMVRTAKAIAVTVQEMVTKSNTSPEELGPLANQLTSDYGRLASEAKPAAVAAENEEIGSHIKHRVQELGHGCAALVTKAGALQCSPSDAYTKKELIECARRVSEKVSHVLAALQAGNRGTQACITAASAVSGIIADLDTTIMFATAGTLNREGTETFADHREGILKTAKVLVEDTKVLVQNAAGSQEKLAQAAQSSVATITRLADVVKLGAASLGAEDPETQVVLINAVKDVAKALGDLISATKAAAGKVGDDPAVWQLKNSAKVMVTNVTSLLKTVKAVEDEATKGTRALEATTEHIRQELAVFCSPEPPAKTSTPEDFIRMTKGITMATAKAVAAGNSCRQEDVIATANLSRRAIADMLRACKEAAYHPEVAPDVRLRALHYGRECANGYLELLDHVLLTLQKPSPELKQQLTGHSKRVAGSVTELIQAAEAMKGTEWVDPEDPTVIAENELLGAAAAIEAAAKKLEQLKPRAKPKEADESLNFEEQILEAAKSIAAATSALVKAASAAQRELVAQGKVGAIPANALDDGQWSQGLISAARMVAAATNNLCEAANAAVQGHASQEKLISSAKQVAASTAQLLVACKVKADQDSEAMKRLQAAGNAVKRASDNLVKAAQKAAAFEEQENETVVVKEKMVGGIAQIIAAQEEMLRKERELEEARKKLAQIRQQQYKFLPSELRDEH
UniProt Q9Y5T5, whole entry, looked up: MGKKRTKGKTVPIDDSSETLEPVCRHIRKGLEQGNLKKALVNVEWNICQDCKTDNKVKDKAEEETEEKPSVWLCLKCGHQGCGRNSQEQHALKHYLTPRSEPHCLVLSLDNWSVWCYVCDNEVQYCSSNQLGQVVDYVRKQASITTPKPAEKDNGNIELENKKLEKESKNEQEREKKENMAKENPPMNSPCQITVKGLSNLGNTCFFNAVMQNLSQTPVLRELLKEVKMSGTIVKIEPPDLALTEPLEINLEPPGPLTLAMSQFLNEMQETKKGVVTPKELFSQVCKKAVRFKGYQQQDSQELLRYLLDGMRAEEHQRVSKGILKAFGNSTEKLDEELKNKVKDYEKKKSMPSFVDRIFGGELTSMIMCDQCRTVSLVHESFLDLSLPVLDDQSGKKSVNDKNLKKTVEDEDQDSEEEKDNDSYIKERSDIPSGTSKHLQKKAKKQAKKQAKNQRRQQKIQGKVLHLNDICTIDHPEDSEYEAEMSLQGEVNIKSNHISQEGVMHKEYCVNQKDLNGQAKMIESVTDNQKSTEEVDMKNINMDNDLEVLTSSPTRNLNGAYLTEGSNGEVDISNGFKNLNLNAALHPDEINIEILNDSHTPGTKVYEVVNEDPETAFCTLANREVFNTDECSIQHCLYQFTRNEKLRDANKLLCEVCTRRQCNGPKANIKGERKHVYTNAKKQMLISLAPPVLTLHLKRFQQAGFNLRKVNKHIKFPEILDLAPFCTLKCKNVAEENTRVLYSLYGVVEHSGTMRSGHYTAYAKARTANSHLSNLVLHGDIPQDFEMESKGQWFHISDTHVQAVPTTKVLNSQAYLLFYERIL
UniProt Q9Y4C2: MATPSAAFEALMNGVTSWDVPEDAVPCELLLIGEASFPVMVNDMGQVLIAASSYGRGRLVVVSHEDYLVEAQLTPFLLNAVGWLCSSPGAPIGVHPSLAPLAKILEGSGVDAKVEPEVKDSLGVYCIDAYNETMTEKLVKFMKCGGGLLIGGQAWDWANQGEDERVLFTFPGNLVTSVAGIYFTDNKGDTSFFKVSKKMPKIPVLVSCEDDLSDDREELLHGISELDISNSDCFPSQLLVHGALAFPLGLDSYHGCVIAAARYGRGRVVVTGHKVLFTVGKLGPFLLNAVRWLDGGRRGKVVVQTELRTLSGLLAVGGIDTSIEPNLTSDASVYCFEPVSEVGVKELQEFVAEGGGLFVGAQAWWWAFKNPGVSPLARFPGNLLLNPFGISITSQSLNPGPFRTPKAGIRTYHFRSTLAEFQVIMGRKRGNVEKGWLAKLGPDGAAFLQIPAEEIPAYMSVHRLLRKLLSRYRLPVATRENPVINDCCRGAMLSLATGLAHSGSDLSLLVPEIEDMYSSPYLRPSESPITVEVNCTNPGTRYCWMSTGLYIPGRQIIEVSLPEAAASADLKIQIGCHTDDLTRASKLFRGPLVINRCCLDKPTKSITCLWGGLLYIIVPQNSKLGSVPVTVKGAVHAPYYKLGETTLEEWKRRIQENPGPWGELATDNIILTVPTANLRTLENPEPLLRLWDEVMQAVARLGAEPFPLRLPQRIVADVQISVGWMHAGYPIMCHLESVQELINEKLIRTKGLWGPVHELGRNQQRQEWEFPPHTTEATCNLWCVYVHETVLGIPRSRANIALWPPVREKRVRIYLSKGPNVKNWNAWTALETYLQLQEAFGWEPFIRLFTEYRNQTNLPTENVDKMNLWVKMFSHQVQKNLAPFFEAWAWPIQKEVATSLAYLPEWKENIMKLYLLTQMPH
UniProt Q9Y4W2: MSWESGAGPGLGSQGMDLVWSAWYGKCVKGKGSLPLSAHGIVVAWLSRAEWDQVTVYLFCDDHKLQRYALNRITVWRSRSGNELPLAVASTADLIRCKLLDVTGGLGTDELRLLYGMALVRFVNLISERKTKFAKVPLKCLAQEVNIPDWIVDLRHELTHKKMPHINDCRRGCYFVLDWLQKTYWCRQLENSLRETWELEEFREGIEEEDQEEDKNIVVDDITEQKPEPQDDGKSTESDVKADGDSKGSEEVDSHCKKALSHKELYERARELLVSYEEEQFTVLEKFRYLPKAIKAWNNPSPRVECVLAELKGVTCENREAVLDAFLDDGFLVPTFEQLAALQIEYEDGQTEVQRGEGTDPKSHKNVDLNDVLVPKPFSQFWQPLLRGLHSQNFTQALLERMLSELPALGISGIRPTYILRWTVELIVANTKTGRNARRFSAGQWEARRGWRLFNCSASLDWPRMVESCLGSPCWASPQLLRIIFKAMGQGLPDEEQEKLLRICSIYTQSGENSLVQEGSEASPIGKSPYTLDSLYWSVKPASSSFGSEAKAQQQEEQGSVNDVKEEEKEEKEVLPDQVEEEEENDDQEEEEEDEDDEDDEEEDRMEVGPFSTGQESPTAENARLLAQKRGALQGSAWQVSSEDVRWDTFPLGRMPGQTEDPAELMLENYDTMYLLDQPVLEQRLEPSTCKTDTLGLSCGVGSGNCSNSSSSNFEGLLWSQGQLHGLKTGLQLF
UniProt Q9Y696: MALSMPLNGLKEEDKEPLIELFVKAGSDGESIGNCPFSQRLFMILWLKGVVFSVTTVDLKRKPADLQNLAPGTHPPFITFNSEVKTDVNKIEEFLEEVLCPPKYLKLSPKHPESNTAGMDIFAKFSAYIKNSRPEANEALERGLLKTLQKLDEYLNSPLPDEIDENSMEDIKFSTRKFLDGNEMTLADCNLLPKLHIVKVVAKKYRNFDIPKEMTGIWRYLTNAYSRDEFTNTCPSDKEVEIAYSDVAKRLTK
UniProt Q9Y4Z0: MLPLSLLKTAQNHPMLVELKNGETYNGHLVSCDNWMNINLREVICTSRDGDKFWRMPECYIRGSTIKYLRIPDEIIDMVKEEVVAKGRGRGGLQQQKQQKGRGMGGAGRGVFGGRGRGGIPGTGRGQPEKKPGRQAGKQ
UniProt Q9Y613: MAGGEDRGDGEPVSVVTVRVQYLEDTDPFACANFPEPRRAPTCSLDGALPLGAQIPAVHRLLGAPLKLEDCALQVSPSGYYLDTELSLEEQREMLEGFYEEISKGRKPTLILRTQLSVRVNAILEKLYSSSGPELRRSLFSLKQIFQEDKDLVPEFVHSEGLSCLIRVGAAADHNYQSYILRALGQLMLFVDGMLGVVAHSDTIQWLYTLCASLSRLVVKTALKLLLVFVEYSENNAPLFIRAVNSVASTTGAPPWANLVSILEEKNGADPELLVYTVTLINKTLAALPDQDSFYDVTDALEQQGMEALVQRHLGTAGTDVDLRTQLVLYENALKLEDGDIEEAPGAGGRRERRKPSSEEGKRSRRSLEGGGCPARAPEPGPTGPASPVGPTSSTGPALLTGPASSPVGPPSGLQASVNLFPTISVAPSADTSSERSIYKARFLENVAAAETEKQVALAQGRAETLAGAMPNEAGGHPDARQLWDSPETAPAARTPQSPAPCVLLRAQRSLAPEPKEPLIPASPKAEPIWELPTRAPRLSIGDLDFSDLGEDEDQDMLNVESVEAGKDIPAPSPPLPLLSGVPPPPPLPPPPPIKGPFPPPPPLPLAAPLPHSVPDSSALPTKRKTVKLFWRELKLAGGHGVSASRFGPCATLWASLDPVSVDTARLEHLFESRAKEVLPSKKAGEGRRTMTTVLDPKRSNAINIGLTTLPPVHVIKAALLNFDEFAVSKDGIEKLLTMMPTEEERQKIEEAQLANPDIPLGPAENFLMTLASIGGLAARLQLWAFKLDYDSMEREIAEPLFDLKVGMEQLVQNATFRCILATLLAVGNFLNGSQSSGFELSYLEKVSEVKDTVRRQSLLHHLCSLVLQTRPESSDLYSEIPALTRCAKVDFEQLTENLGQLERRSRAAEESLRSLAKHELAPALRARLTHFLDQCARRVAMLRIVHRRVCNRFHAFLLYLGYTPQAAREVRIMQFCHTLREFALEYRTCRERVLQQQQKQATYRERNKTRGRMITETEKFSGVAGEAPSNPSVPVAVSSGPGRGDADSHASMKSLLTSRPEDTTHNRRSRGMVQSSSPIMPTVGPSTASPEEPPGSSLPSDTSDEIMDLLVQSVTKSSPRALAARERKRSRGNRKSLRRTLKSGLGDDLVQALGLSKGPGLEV

Compound: COC(=O)/C=C/c1ccccc1 [methyl cinnamate]
Experiment: log2 ratio of iodoacetamide-alkyne labeling of the cysteine site, DMSO over compound (competition); higher = stronger covalent engagement of the cysteine by the compound, active = 1 or more
Conditions: 500 µM; treatment time 1 h; system: HEK293T cell lysate
Method in brief: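 HEK293T lysate at 2 mg/mL was treated with vehicle or electrophile (500 µM) for 1 h at ambient temperature, then labelled with iodoacetamide alkyne (1 h), clicked to sCIP-TMT reagents, pooled, digested with trypsin overnight at 37 °C, enriched on streptavidin and eluted with acid. Peptides were analysed by Orbitrap Eclipse LC-MS/MS with FAIMS and quantified in FragPipe, using duplicate channels and three replicates, with cysteines quantified in only one replicate excluded. The log2 competition ratio for each cysteine is the mean control-channel reporter intensity divided by the mean compound-channel reporter intensity.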

MORC2 C962 (UniProt Q9Y6X9)
log2 ratio of iodoacetamide-alkyne labeling: inactive: 0.149

WIPI2 C393 (UniProt Q9Y4P8)
log2 ratio of iodoacetamide-alkyne labeling: inactive: 0.194

TACC3 C662 (UniProt Q9Y6A5)
log2 ratio of iodoacetamide-alkyne labeling: inactive: 0.162

TAF6L C41 (UniProt Q9Y6J9)
log2 ratio of iodoacetamide-alkyne labeling: inactive: 0.179

ARFGEF2 C1206 (UniProt Q9Y6D5)
log2 ratio of iodoacetamide-alkyne labeling: inactive: 0.153

SNX5 C397 (UniProt Q9Y5X3)
log2 ratio of iodoacetamide-alkyne labeling: inactive: -0.0947

UniProt Q9Y520_C481
log2 ratio of iodoacetamide-alkyne labeling: inactive: 0.592

TLN1 C2161 (UniProt Q9Y490)
log2 ratio of iodoacetamide-alkyne labeling: inactive: 0.0593

USP16 C618 (UniProt Q9Y5T5)
log2 ratio of iodoacetamide-alkyne labeling: inactive: 0.0638

AFG3L2 C525 (UniProt Q9Y4W6)
log2 ratio of iodoacetamide-alkyne labeling: inactive: 0.194

DTNA C583 (UniProt Q9Y4J8)
log2 ratio of iodoacetamide-alkyne labeling: inactive: 0.286

USP15 C381 (UniProt Q9Y4E8)
log2 ratio of iodoacetamide-alkyne labeling: inactive: -0.0402

TELO2 C367 (UniProt Q9Y4R8)
log2 ratio of iodoacetamide-alkyne labeling: inactive: -0.306

TLN1 C1558 (UniProt Q9Y490)
log2 ratio of iodoacetamide-alkyne labeling: inactive: 0.388

CD2AP C540 (UniProt Q9Y5K6)
log2 ratio of iodoacetamide-alkyne labeling: inactive: 0.46

NME7 C228 (UniProt Q9Y5B8)
log2 ratio of iodoacetamide-alkyne labeling: inactive: -0.0844

TLN1 C1353 (UniProt Q9Y490)
log2 ratio of iodoacetamide-alkyne labeling: inactive: 0.0465

NUBP2 C269 (UniProt Q9Y5Y2)
log2 ratio of iodoacetamide-alkyne labeling: inactive: -0.103

UniProt Q9Y4B6_C1070
log2 ratio of iodoacetamide-alkyne labeling: inactive: 0.039

AIM1 C976 (UniProt Q9Y4K1)
log2 ratio of iodoacetamide-alkyne labeling: inactive: 0.0837

PPME1 C381 (UniProt Q9Y570)
log2 ratio of iodoacetamide-alkyne labeling: inactive: 0.241

TLN1 C732 (UniProt Q9Y490)
log2 ratio of iodoacetamide-alkyne labeling: inactive: 0.427

UniProt Q9Y5J5_C87
log2 ratio of iodoacetamide-alkyne labeling: inactive: -0.108

TCAF1 C576 (UniProt Q9Y4C2)
log2 ratio of iodoacetamide-alkyne labeling: inactive: 0.0324

USP16 C631 (UniProt Q9Y5T5)
log2 ratio of iodoacetamide-alkyne labeling: inactive: 0.506

TEX264 C165 (UniProt Q9Y6I9)
log2 ratio of iodoacetamide-alkyne labeling: inactive: 0.311

ALG5 C194 (UniProt Q9Y673)
log2 ratio of iodoacetamide-alkyne labeling: inactive: -0.0996

NUBP2 C72 (UniProt Q9Y5Y2)
log2 ratio of iodoacetamide-alkyne labeling: inactive: 0.193

TCAF1 C487 (UniProt Q9Y4C2)
log2 ratio of iodoacetamide-alkyne labeling: inactive: 0.213

TLN1 C1434 (UniProt Q9Y490)
log2 ratio of iodoacetamide-alkyne labeling: inactive: -0.183

AFG3L2 C313 (UniProt Q9Y4W6)
log2 ratio of iodoacetamide-alkyne labeling: inactive: 0.0347

UniProt Q9Y5P4_C185
log2 ratio of iodoacetamide-alkyne labeling: inactive: 0.142

TCAF1 C543 (UniProt Q9Y4C2)
log2 ratio of iodoacetamide-alkyne labeling: inactive: 0.372

TRAPPC1 C115 (UniProt Q9Y5R8)
log2 ratio of iodoacetamide-alkyne labeling: inactive: 0.543

LAS1L C140 (UniProt Q9Y4W2)
log2 ratio of iodoacetamide-alkyne labeling: inactive: 0.332

GTF3C5 C411 (UniProt Q9Y5Q8)
log2 ratio of iodoacetamide-alkyne labeling: inactive: 0.0765

USP16 C205 (UniProt Q9Y5T5)
log2 ratio of iodoacetamide-alkyne labeling: inactive: 0.0118

LAS1L C504 (UniProt Q9Y4W2)
log2 ratio of iodoacetamide-alkyne labeling: inactive: -0.0743

CLIC4 C100 (UniProt Q9Y696)
log2 ratio of iodoacetamide-alkyne labeling: inactive: 0.0409

TLN1 C956 (UniProt Q9Y490)
log2 ratio of iodoacetamide-alkyne labeling: inactive: 0.315

UTP18 C90 (UniProt Q9Y5J1)
log2 ratio of iodoacetamide-alkyne labeling: inactive: 0.15

LSM4 C32 (UniProt Q9Y4Z0)
log2 ratio of iodoacetamide-alkyne labeling: inactive: 0.0973

LAS1L C699 (UniProt Q9Y4W2)
log2 ratio of iodoacetamide-alkyne labeling: inactive: 0.162

KCTD3 C606 (UniProt Q9Y597)
log2 ratio of iodoacetamide-alkyne labeling: inactive: 0.246

RBM19 C293 (UniProt Q9Y4C8)
log2 ratio of iodoacetamide-alkyne labeling: inactive: -0.0474

UniProt Q9Y678_C516
log2 ratio of iodoacetamide-alkyne labeling: inactive: 0.146

SEC23IP C457 (UniProt Q9Y6Y8)
log2 ratio of iodoacetamide-alkyne labeling: inactive: -0.0965

UTP18 C241 (UniProt Q9Y5J1)
log2 ratio of iodoacetamide-alkyne labeling: inactive: 0.0275

TLN1 C1939 (UniProt Q9Y490)
log2 ratio of iodoacetamide-alkyne labeling: inactive: 0.471

UniProt Q9Y6E0_C375
log2 ratio of iodoacetamide-alkyne labeling: inactive: 0.244

UniProt Q9Y4C1_C947
log2 ratio of iodoacetamide-alkyne labeling: inactive: 0.154

TCAF1 C144 (UniProt Q9Y4C2)
log2 ratio of iodoacetamide-alkyne labeling: inactive: 0.248

UniProt Q9Y6E0_C415
log2 ratio of iodoacetamide-alkyne labeling: inactive: -0.0435

TAF6L C81 (UniProt Q9Y6J9)
log2 ratio of iodoacetamide-alkyne labeling: inactive: -0.129

TLN1 C1045 (UniProt Q9Y490)
log2 ratio of iodoacetamide-alkyne labeling: inactive: 0.0231

MAP3K4 C163 (UniProt Q9Y6R4)
log2 ratio of iodoacetamide-alkyne labeling: inactive: -0.326

FHOD1 C502 (UniProt Q9Y613)
log2 ratio of iodoacetamide-alkyne labeling: inactive: 0.233

TBL2 C335 (UniProt Q9Y4P3)
log2 ratio of iodoacetamide-alkyne labeling: inactive: 0.451

TLN1 C1363 (UniProt Q9Y490)
log2 ratio of iodoacetamide-alkyne labeling: inactive: 0.213

LAS1L C690 (UniProt Q9Y4W2)
log2 ratio of iodoacetamide-alkyne labeling: inactive: 0.0473

YTHDF2 C482 (UniProt Q9Y5A9)
log2 ratio of iodoacetamide-alkyne labeling: inactive: -0.00989
